# Laboratory results reported in PubChem BioAssay AID1487 (National Center for Advancing Translational Sciences (NCATS), 2009).
# Where “and” joins values, the source holds several entries; their conditions need not be identical. Equal entries are not always repeated. This is one part of the list. These are further read-outs of the screen, such as a control signal, another cell line or another target. No call is given for them. The list favours compounds with an active or inconclusive main result. Potencies come from curve fits of mixed quality, noted in brackets.
# Test: qHTS Assay for Modulators of Lamin A Splicing
# Details: HeLa LMNA splicing GFP/RFP minigene ratio, 48 h
# In short: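 S3 HeLa stable clones carrying a lamin A-EGFP splicing minigene plus DsRed2 were seeded at 600 cells/well in Opti-MEM with 2% FBS, pin-dosed and incubated 48 h at 37°C. Acumen cytometry (488 nm) gave the GFP/RFP total-intensity ratio.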
# [1] = measured here: GFP splicing reporter channel
# [2] = measured here: RFP viability control channel
SMILES,AC50 [1],AC50 [2]
CC1(C)N=C(SCc2ccc(F)cc2)c2ccccc2N1,"7.94 µM [falling, partial curve, poor fit]","25.1 µM [falling, single point]"
CN1CCN(c2ccc([N+](=O)[O-])cc2C(=O)c2ccc(Cl)cc2)CC1,–,"8.91 µM [rising, partial curve, poor fit]"
COc1ccc(C(=O)/C=C/c2ccc(OC)c(Cn3nnc4ccccc43)c2)cc1,"2.82 µM [falling, partial curve]","3.16 µM [falling, partial curve]"
CC1CCCCN1CCCNC(=O)c1cc(Sc2cccc(Cl)c2)nc2ccccc12 (stereo not drawn),"0.891 µM [falling, full curve, poor fit]","0.282 µM [falling, partial curve, poor fit]"
Cc1c(C(=O)OC2CCC(C)CC2)[nH]c2c1C(=O)CCC2 (stereo not drawn),–,"3.98 µM [rising, partial curve]"
COc1cccc(C(=O)Nc2cc3c(cc2C(C)=O)OCCO3)c1,"12.6 µM [rising, partial curve]","15.8 µM [rising, partial curve]"
Cc1nc2sccn2c(=O)c1CCN1CCC(=C(c2ccccc2)c2ccc(F)cc2)CC1,"15.8 µM [rising, partial curve, poor fit]","17.8 µM [rising, partial curve]"
CCCCCCCCNC(=O)CCNC(=O)c1ccc(C(C)(C)C)cc1,"12.6 µM [rising, single point]",–
Cc1nc2c(C)cccc2cc1C(=O)N/N=C/c1cccc([N+](=O)[O-])c1,–,"35.5 µM [rising, single point]"
O=C(CN1CCN(c2ccccn2)CC1)Nc1ccc2ccccc2c1,–,"12.6 µM [rising, single point]"
OC1CCCN(Cc2ccc3ccc4cccc5ccc2c3c45)C1 (stereo not drawn),"35.5 µM [falling, single point]",–
COc1ccc(C(=O)Nc2nc(-c3cccs3)cs2)cc1,"11.2 µM [rising, partial curve]","14.1 µM [rising, partial curve]"
Cc1ccc(Cl)cc1NC(=O)CSc1nc2ccccc2c2nc(-c3ccccc3)nn12,–,"10 µM [rising, partial curve, poor fit]"
COc1cc(OC)c(-c2nn3c(-c4ccncc4)nnc3s2)cc1OC,–,"12.6 µM [rising, single point]"
CCN(CC)S(=O)(=O)c1ccc(Oc2ccccc2)cc1,–,"14.1 µM [rising, single point]"
Cc1nc2sc3c(c2c(=O)n1N)CCC3,"0.00316 µM [falling, full curve, poor fit]",–
Cc1ccc(N/C(C(Cl)=C(Cl)Cl)=C(/Cl)[N+](=O)[O-])c(C)c1,"12.6 µM [rising, partial curve]","15.8 µM [rising, partial curve]"

SMILES,AC50 [1],AC50 [2]
O=S(=O)(NCC(c1cccnc1)N1CCN(c2ccc(F)cc2)CC1)c1ccc(F)cc1 (stereo not drawn),–,"5.62 µM [rising, partial curve, poor fit]"
O=C(NCC(c1cccs1)N1CCOCC1)c1ccccc1NS(=O)(=O)c1cc([N+](=O)[O-])ccc1Cl (stereo not drawn),–,"35.5 µM [rising, single point]"
N#CC1=C(N)Oc2cc(N)ccc2C1C1CC=CCC1 (stereo not drawn),–,"12.6 µM [rising, single point]"
C=C(C(=O)c1ccccc1)C(C)C(=C)C(=O)c1ccccc1,–,"3.55 µM [rising, full curve, poor fit]"
COc1cc(CNCc2ccncc2)cc(Br)c1OCc1ccccc1F,"3.16 µM [rising, single point]","3.98 µM [rising, full curve]"
S=c1ccss1,"3.55 µM [falling, single point]","11.2 µM [falling, partial curve, poor fit]"
CCCCNc1nc2ccccc2n1CC(=O)Nc1c(C)cccc1CC,"0.01 µM [rising, full curve, poor fit]",–
CC(=O)Sc1nc(-c2ccccc2)[nH]c1S(=O)(=O)c1ccc(C)cc1,"11.2 µM [falling, partial curve]",–
O=C1CN(/N=C/c2ccc([N+](=O)[O-])o2)C(=O)N1,"35.5 µM [falling, single point] and 11.2 µM [rising, partial curve, poor fit]","1 µM [falling, single point] and 14.1 µM [rising, partial curve]"
O=C(N/N=C/c1ccc([N+](=O)[O-])s1)C(O)c1ccccc1 (stereo not drawn),–,"31.6 µM [rising, single point]"
CCCCc1sc(-c2c(C#N)c(N)nc3c2CCCCC3)cc1[N+](=O)[O-],"3.98 µM [rising, full curve]",–
CS(=O)(=O)c1ccc(C(=O)OCC(=O)NC(=O)C2CCCCC2)cc1[N+](=O)[O-],–,"35.5 µM [falling, partial curve]"
NC(N)=NC(=O)c1nc(Cl)c(N2CCCCCC2)nc1N,"4.47 µM [falling, full curve, poor fit]","4.47 µM [falling, full curve, poor fit]"
O=C(NN1C(=O)C2C(c3ccccc3)C=CC(c3ccccc3)C2C1=O)c1cccc(Br)c1 (stereo not drawn),"14.1 µM [rising, single point]","15.8 µM [rising, single point]"
Cc1cc(C(=O)CSc2ccc3c(c2)OCCO3)c(C)n1C1CC1,"22.4 µM [rising, single point]","35.5 µM [rising, single point]"
Cc1ccc(NC(=O)C2CC(=O)n3ncnc3N2)cc1C (stereo not drawn),"11.2 µM [falling, partial curve]","3.16 µM [falling, full curve]"
Cc1ccc(/C=C2\SC(=S)N(c3cccnc3)C2=O)cc1,"3.16 µM [falling, partial curve, poor fit]",–

# Two records drawn at random from those above, as already listed:
SMILES,AC50 [1],AC50 [2]
O=C1CN(/N=C/c2ccc([N+](=O)[O-])o2)C(=O)N1,"35.5 µM [falling, single point] and 11.2 µM [rising, partial curve, poor fit]","1 µM [falling, single point] and 14.1 µM [rising, partial curve]"
OC1CCCN(Cc2ccc3ccc4cccc5ccc2c3c45)C1 (stereo not drawn),"35.5 µM [falling, single point]",–
